No constants are given. Whether binding was seen depends on the method and setting. Binding seen in cells or lysates may run through a third protein. Some entries that bind do so weakly or less than the wild type.
T1: NEDD9 (neural precursor cell expressed, developmentally down-regulated 9) (human (endogenous in HeLa)) (UniProt Q14511)
T1 sequence: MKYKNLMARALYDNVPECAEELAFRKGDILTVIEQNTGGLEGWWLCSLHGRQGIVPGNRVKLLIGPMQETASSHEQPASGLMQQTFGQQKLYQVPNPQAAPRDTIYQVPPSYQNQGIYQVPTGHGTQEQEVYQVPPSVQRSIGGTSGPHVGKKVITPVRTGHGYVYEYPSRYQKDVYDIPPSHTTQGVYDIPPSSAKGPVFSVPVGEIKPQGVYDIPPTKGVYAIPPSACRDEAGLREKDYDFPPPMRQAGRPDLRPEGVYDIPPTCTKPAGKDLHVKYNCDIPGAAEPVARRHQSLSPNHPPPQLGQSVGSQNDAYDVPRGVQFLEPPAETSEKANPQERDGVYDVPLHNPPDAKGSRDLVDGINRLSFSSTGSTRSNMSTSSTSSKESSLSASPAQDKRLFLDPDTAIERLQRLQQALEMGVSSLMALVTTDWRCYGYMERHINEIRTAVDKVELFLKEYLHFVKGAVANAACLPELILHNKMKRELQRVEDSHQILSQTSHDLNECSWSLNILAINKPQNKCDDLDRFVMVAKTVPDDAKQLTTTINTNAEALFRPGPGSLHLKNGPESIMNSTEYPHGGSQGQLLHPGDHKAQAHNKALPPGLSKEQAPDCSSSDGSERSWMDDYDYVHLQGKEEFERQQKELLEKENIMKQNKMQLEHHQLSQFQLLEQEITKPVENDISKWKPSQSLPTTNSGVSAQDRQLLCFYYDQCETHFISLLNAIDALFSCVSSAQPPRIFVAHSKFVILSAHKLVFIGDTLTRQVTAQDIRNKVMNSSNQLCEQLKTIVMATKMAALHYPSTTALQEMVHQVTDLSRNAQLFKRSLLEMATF

Chains of the proteins cited; added tags and fusions are not shown.
UniProt Q9HAU4: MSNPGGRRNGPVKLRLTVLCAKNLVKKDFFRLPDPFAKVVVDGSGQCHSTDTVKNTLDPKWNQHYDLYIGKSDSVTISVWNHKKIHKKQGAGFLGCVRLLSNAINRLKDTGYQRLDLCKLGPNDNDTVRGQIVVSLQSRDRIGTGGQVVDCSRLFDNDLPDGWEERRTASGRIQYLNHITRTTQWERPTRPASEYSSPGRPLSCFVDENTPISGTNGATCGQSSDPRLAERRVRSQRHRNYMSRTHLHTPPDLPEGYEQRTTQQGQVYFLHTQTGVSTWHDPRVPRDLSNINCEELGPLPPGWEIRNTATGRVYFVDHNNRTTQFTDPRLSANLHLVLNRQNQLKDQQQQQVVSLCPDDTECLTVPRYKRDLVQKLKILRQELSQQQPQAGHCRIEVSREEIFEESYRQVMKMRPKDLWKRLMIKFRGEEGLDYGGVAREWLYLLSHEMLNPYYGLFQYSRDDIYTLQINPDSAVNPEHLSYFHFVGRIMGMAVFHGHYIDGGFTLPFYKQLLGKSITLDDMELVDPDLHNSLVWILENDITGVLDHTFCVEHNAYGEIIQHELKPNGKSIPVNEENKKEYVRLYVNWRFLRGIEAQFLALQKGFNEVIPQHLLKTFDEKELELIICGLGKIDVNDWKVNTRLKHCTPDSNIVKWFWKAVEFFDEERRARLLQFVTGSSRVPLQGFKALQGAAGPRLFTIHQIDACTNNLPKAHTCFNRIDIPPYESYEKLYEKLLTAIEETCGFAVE

B1: NEDD9 (neural precursor cell expressed, developmentally down-regulated 9) (protein, UniProt Q14511 1-834)
chain: MKYKNLMARALYDNVPECAEELAFRKGDILTVIEQNTGGLEGWWLCSLHGRQGIVPGNRVKLLIGPMQETASSHEQPASGLMQQTFGQQKLYQVPNPQAAPRDTIYQVPPSYQNQGIYQVPTGHGTQEQEVYQVPPSVQRSIGGTSGPHVGKKVITPVRTGHGYVYEYPSRYQKDVYDIPPSHTTQGVYDIPPSSAKGPVFSVPVGEIKPQGVYDIPPTKGVYAIPPSACRDEAGLREKDYDFPPPMRQAGRPDLRPEGVYDIPPTCTKPAGKDLHVKYNCDIPGAAEPVARRHQSLSPNHPPPQLGQSVGSQNDAYDVPRGVQFLEPPAETSEKANPQERDGVYDVPLHNPPDAKGSRDLVDGINRLSFSSTGSTRSNMSTSSTSSKESSLSASPAQDKRLFLDPDTAIERLQRLQQALEMGVSSLMALVTTDWRCYGYMERHINEIRTAVDKVELFLKEYLHFVKGAVANAACLPELILHNKMKRELQRVEDSHQILSQTSHDLNECSWSLNILAINKPQNKCDDLDRFVMVAKTVPDDAKQLTTTINTNAEALFRPGPGSLHLKNGPESIMNSTEYPHGGSQGQLLHPGDHKAQAHNKALPPGLSKEQAPDCSSSDGSERSWMDDYDYVHLQGKEEFERQQKELLEKENIMKQNKMQLEHHQLSQFQLLEQEITKPVENDISKWKPSQSLPTTNSGVSAQDRQLLCFYYDQCETHFISLLNAIDALFSCVSSAQPPRIFVAHSKFVILSAHKLVFIGDTLTRQVTAQDIRNKVMNSSNQLCEQLKTIVMATKMAALHYPSTTALQEMVHQVTDLSRNAQLFKRSLLEMATF

Assays:
[1] = target: T1, NEDD9 (neural precursor cell expressed, developmentally down-regulated 9) (human (endogenous in HeLa)); test: co-IP; endogenous proteins from HeLa extracts, asynchronous or synchronized at mitosis by thymidine-nocodazole; 400 ug total protein with 1.5 ug antibody overnight at 4°C, protein A (Smurf2 IP) or protein G (NEDD9 IP) beads 1 h at 4°C; immunoblotting; normal IgG as control; co-precipitation less obvious in asynchronous cells
[2] = target: Smurf2 (Smad ubiquitination regulatory factor 2) (human (endogenous in HeLa)) (UniProt Q9HAU4); test: as above

Molecule | binding [1] | binding [2]
Smurf2 (Smad ubiquitination regulatory factor 2) (from UniProt Q9HAU4 1-748) | binds | –
B1 | – | binds

— paper PMC2941750
